Measured values reported in the supplement of paper PMC3682954.
Values joined by “and” are separate entries in the source; they are usually repeats but may differ in a detail not shown here. Equal values may be shown once. Where a name gives a salt, the structure may show the parent alone. ± gives the standard deviation of the averaged measurements. The list shows a part of the results. Many values rest on one well or one pass, so single values are uncertain.

Test system: RAW 264.7
Assay: HMGB1-induced TNF-alpha production relative to HMGB1-stimulated control; higher = more TNF-alpha secretion (less inhibition)
Details: stimulus: HMGB1 5 ug/ml, 18 h
[1] = compound concentration: 1 ug/ml

In the case of `CCCCOC(=O)NS(=O)(=O)c1sc(CC(C)C)cc1-c1ccc(Cn2c(CC)nc3c(C)cc(C)nc32)cc1`, the “HMGB1-induced TNF-alpha production” value (compound concentration: 3 uM) is reported as 115%.

`Cc1cc2ccc(=O)oc2cc1OC[C@@H](O)C(C)(C)O` was tested, and the “HMGB1-induced TNF-alpha production” value [1] was 76.6%.

With `NCCCC[C@H](N[C@@H](CCc1ccccc1)C(=O)O)C(=O)N1CCC[C@H]1C(=O)O` the “HMGB1-induced TNF-alpha production” value (compound concentration: 3 uM) was 87.8%.

For `NCCCC[C@H](N[C@@H](CCc1ccccc1)C(=O)O)C(=O)N1CCC[C@H]1C(=O)O` [Lisinopril], the “HMGB1-induced TNF-alpha production” value (compound concentration: 3 uM) was 86.2 ± 26%.

In the case of `CC(C)(C)NC[C@H](O)COc1nsnc1N1CCOCC1`, the “HMGB1-induced TNF-alpha production” value (compound concentration: 3 uM) is reported as 90%.

With `CC(C)(C)NC[C@H](O)COc1nsnc1N1CCOCC1` [S(-)-Timolol maleate] the “HMGB1-induced TNF-alpha production” value (compound concentration: 3 uM) was 94.4%.

With `CC(C)(C)NC[C@H](O)COc1nsnc1N1CCOCC1` [Timolol (S)] the “HMGB1-induced TNF-alpha production” value (compound concentration: 3 uM) was 97.6%.

For `CC(C)(C)NC[C@H](O)COc1nsnc1N1CCOCC1` [Timolol maleate salt], the “HMGB1-induced TNF-alpha production” value (compound concentration: 3 uM) was 109%.

In the case of `C[C@]12CCC(=O)C=C1CC[C@@H]1[C@@H]2[C@@H](O)C[C@@]2(C)[C@H]1CC[C@]2(O)C(=O)COC(=O)CCC(=O)O`, the “HMGB1-induced TNF-alpha production” value (compound concentration: 3 uM) is reported as 66.8%.

With `C[C@]12CCC(=O)C=C1CC[C@@H]1[C@@H]2[C@@H](O)C[C@@]2(C)[C@H]1CC[C@]2(O)C(=O)COC(=O)CCC(=O)O` [hydrocortisone 21-hemisuccinate] the “HMGB1-induced TNF-alpha production” value [1] was 54.7%.

With `c1ccc2c(c1)CCC[C@H]2Nc1nc2ccccc2[nH]1` [NS8593 hydrochloride] the “HMGB1-induced TNF-alpha production” value (compound concentration: 3 uM) was 81%.

With `O=C(Nc1cccc2c(=O)cc(-c3nnn[nH]3)oc12)c1ccc(OCCCCc2ccccc2)cc1` [Pranlukast] the “HMGB1-induced TNF-alpha production” value (compound concentration: 3 uM) was 80.2 ± 0.87%.

In the case of `COc1cc(-c2oc3c(OC)c(O)cc(O)c3c(=O)c2O)ccc1O` [Limocitrin], the “HMGB1-induced TNF-alpha production” value [1] is reported as 79.1%.

For `CCOC(=O)[C@H](CCc1ccccc1)N[C@H]1CCc2ccccc2N(CC(=O)O)C1=O` [Benazepril HCl], the “HMGB1-induced TNF-alpha production” value (compound concentration: 3 uM) was 106%.

For `C=CCN1CCc2cc(O)c(O)cc2C(c2ccccc2)C1` (racemic), the “HMGB1-induced TNF-alpha production” value (compound concentration: 3 uM) was 113%.

In the case of `O=C1CCC(c2ccc(-n3ccnc3)cc2)=NN1` [Imazodan], the “HMGB1-induced TNF-alpha production” value (compound concentration: 3 uM) is reported as 96.6%.

In the case of `COC1=C(OC)C(=O)C(CCCCCCCCCCO)=C(C)C1=O`, the “HMGB1-induced TNF-alpha production” value (compound concentration: 3 uM) is reported as 81.7 ± 36%.

In the case of `COC1=C(OC)C(=O)C(CCCCCCCCCCO)=C(C)C1=O` [Idebenone], the “HMGB1-induced TNF-alpha production” value (compound concentration: 3 uM) is reported as 75.8 ± 7.6%.

With `CCNC(=O)N1CCN(CCCC(c2ccc(F)cc2)c2ccc(F)cc2)CC1` [Amperozide hydrochloride] the “HMGB1-induced TNF-alpha production” value (compound concentration: 3 uM) was 84.2%.

For `Fc1ccc(C(OCCCc2cnc[nH]2)c2ccc(F)cc2)cc1`, the “HMGB1-induced TNF-alpha production” value (compound concentration: 3 uM) was 96.7%.

`NCC(O)c1ccc(O)c(O)c1` (racemic) [(±)-Norepinephrine (+)bitartrate] was tested, and the “HMGB1-induced TNF-alpha production” value (compound concentration: 3 uM) was 61%.

With `NC(CCCP(=O)(O)O)C(=O)O` (racemic) [(±)-2-Amino-5-phosphonopentanoic acid] the “HMGB1-induced TNF-alpha production” value (compound concentration: 3 uM) was 78.7%.

With `CCOC(=O)OC(C)OC(=O)[C@@H]1N2C(=O)[C@@H](NC(=O)[C@H](N)c3ccccc3)[C@H]2SC1(C)C` (stereo partly specified) the “HMGB1-induced TNF-alpha production” value (compound concentration: 3 uM) was 87.4%.

`CCOC(=O)OC(C)OC(=O)[C@@H]1N2C(=O)[C@@H](NC(=O)[C@H](N)c3ccccc3)[C@H]2SC1(C)C` (stereo partly specified) [Bacampicillin hydrochloride] was tested, and the “HMGB1-induced TNF-alpha production” value (compound concentration: 3 uM) was 78.8%.

In the case of `Nc1nc(F)nc2c1ncn2[C@@H]1O[C@H](CO)[C@@H](O)[C@@H]1O` [Fludarabine], the “HMGB1-induced TNF-alpha production” value (compound concentration: 3 uM) is reported as 121%.

In the case of `Nc1nc2c(c(=O)[nH]1)N=C(CNc1ccc(C(=O)N[C@@H](CCC(=O)O)C(=O)O)cc1)CN2` [Dihydrofolic acid, 90%], the “HMGB1-induced TNF-alpha production” value [1] is reported as 72.9%.

`CCc1cccc(N(C)C(=N)Nc2cccc3ccccc23)c1` was tested, and the “HMGB1-induced TNF-alpha production” value (compound concentration: 3 uM) was 80.5%.

`CN1CCc2cc3c(cc2C(=O)Cc2ccc4c(c2C1)OCO4)OCO3` [Protopine] was tested, and the “HMGB1-induced TNF-alpha production” value [1] was 66.2%.

`CC[C@H]1OC(=O)[C@H](C)[C@@H](O[C@H]2C[C@@](C)(OC)[C@@H](O)[C@H](C)O2)[C@H](C)[C@@H](O[C@@H]2O[C@H](C)C[C@H](N(C)C)[C@H]2O)[C@](C)(O)C[C@@H](C)/C(=N\OCOCCOC)[C@H](C)[C@@H](O)[C@]1(C)O` was tested, and the “HMGB1-induced TNF-alpha production” value (compound concentration: 3 uM) was 64.4%.

`CC[C@H]1OC(=O)[C@H](C)[C@@H](O[C@H]2C[C@@](C)(OC)[C@@H](O)[C@H](C)O2)[C@H](C)[C@@H](O[C@@H]2O[C@H](C)C[C@H](N(C)C)[C@H]2O)[C@](C)(O)C[C@@H](C)/C(=N\OCOCCOC)[C@H](C)[C@@H](O)[C@]1(C)O` [Roxithromycin] was tested, and the “HMGB1-induced TNF-alpha production” value (compound concentration: 3 uM) was 103 ± 5.7%.

For `O=C([O-])[C@H]1/C(=C/CO)O[C@@H]2CC(=O)N21.[Li+]`, the “HMGB1-induced TNF-alpha production” value (compound concentration: 3 uM) was 95.1%.

`CC(C)C[C@H](NC(=O)[C@@H](Cc1c[nH]c2ccccc12)NC(=O)[C@H](Cc1ccc(O)cc1)NC(=O)[C@H](CO)NC(=O)[C@H](Cc1c[nH]c2ccccc12)NC(=O)[C@H](Cc1c[nH]cn1)NC(=O)[C@@H]1CCC(=O)N1)C(=O)N[C@@H](CCCNC(=N)N)C(=O)N1CCC[C@H]1C(=O)NCC(N)=O` [Triptorelin] was tested, and the “HMGB1-induced TNF-alpha production” value (compound concentration: 3 uM) was 87.1%.

In the case of `CC(=O)N[C@@H](CC(C)C)C(=O)O`, the “HMGB1-induced TNF-alpha production” value (compound concentration: 3 uM) is reported as 80%.

For `CC(=O)N[C@@H](CC(C)C)C(=O)O` [N-Acetyl-L-leucine], the “HMGB1-induced TNF-alpha production” value (compound concentration: 3 uM) was 107%.

In the case of `Nc1nc(=O)c2nc(CNc3ccc(C(=O)N[C@@H](CCC(=O)O)C(=O)O)cc3)cnc2[nH]1`, the “HMGB1-induced TNF-alpha production” value (compound concentration: 3 uM) is reported as 75.6%.

In the case of `Nc1nc(=O)c2nc(CNc3ccc(C(=O)N[C@@H](CCC(=O)O)C(=O)O)cc3)cnc2[nH]1` [Folic acid], the “HMGB1-induced TNF-alpha production” value (compound concentration: 3 uM) is reported as 112%.

In the case of `C=C1CC[C@H](O)C/C1=C/C=C1\CCC[C@]2(C)[C@@H]([C@H](C)CCCC(C)(C)O)CC[C@@H]12` [Calcifediol], the “HMGB1-induced TNF-alpha production” value (compound concentration: 3 uM) is reported as 79.5%.

`CC(N)=O` [Acetamide] was tested, and the “HMGB1-induced TNF-alpha production” value (compound concentration: 3 uM) was 96.1%.

With `Cc1ccc2oc(=O)c(-c3ccc(O)cc3)c(C)c2c1` [4,6-Dimethyl-3(4'-hydroxyphenyl)coumarin] the “HMGB1-induced TNF-alpha production” value [1] was 69.9%.

`Nc1nc(Cl)nc2c1ncn2[C@@H]1O[C@H](CO)[C@@H](O)[C@@H]1F` [Clofarabine] was tested, and the “HMGB1-induced TNF-alpha production” value (compound concentration: 3 uM) was 121%.

In the case of `O=C1CN2Cc3c(ccc(Cl)c3Cl)N=C2N1` [Anagrelide], the “HMGB1-induced TNF-alpha production” value (compound concentration: 3 uM) is reported as 94.3%.

In the case of `O=C1CN2Cc3c(ccc(Cl)c3Cl)N=C2N1`, the “HMGB1-induced TNF-alpha production” value (compound concentration: 3 uM) is reported as 110% and 91.1%.

In the case of `CC(C)=CCCC(C)CCO` (stereo unspecified) [Citronellol], the “HMGB1-induced TNF-alpha production” value [1] is reported as 73.5%.

In the case of `CC(C)NCC(O)COc1ccc(COCCOC(C)C)cc1` (stereo unspecified) [Bisoprolol fumarate], the “HMGB1-induced TNF-alpha production” value (compound concentration: 3 uM) is reported as 73.8%.

With `CC(C)NCC(O)COc1ccc(COCCOC(C)C)cc1` (stereo unspecified) [Bisoprolol hemifumarate salt] the “HMGB1-induced TNF-alpha production” value (compound concentration: 3 uM) was 98.2%.

`CC(C)NCC(O)COc1ccc(COCCOC(C)C)cc1` (stereo unspecified) was tested, and the “HMGB1-induced TNF-alpha production” value (compound concentration: 3 uM) was 103.8 ± 0.22%.
